PubChem BioAssay AID1224826 | NIAID – 2016

Purpose: 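Knock-downs that raise or lower Tnf reporter signal after endotoxin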 (primary screen)
System: RAW264.7 G9 macrophages from mouse bearing reporters for p65 (GFP) and the Tnf promoter (mCherry)
Knock-down reagent: siRNA pool against mouse genes, 100 nM
Timing: 16 h of LPS stimulation, after 2 days of siRNA transfection
Challenge: bacterial lipopolysaccharide (Salmonella minnesota R595), 10 ng/ml
Measurement: 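Nuclear mCherry signal of the Tnf promoter reporter measured by imaging after background removal, scaled to each plate median and turned into robust z-scores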
Direction: Tnf reporter robust z-score: higher = stronger Tnf promoter reporter signal after LPS
Call rule: 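Called active when robust z-score is at most -1.3, matching the median of the Tlr4 knock-down control, or over 3; control wells and wells with under 50 cells never active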
Calls: active = Tnf reporter clearly lowered or raised; inactive = no clear change in Tnf reporter
The whole screen tested about 17,000 reagents; below is a part drawn at random. About 1,110 of them (6.6%) count as active. 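Active means lowered or raised reporter signal; replicate intensities are raw and not normalised per plate.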 Not all columns of the deposit are shown.

The first 2 records as a preview:
Zfp867 (zinc finger protein 867) — Tnf reporter robust z-score = 2.87; fewer than 50 cells in well = enough cells in well; outcome = inactive
Or52z14 (olfactory receptor family 52 subfamily Z member 14) — Tnf reporter robust z-score = 0.01; fewer than 50 cells in well = enough cells in well; outcome = inactive

The listing, repeating the preview:
Zfp867 (zinc finger protein 867) — Tnf reporter robust z-score = 2.87; fewer than 50 cells in well = enough cells in well; outcome = inactive
Or52z14 (olfactory receptor family 52 subfamily Z member 14) — Tnf reporter robust z-score = 0.01; fewer than 50 cells in well = enough cells in well; outcome = inactive
Arsg (arylsulfatase G) — Tnf reporter robust z-score = -0.34; fewer than 50 cells in well = enough cells in well; outcome = inactive
Or10q12 (olfactory receptor family 10 subfamily Q member 12) — Tnf reporter robust z-score = 2.95; fewer than 50 cells in well = enough cells in well; outcome = inactive
Ppp1r10 (protein phosphatase 1, regulatory subunit 10) — Tnf reporter robust z-score = -1.03; fewer than 50 cells in well = enough cells in well; outcome = inactive
Gnb5 (guanine nucleotide binding protein (G protein), beta 5) — Tnf reporter robust z-score = -1.22; fewer than 50 cells in well = enough cells in well; outcome = inactive
Or5d16 (olfactory receptor family 5 subfamily D member 16) — Tnf reporter robust z-score = 0.09; fewer than 50 cells in well = enough cells in well; outcome = inactive
Zfp384 (zinc finger protein 384) — Tnf reporter robust z-score = -0.29; fewer than 50 cells in well = enough cells in well; outcome = inactive
Lzts3 (leucine zipper, putative tumor suppressor family member 3) — Tnf reporter robust z-score = -0.54; fewer than 50 cells in well = enough cells in well; outcome = inactive
Swi5 (SWI5 recombination repair homolog (yeast)) — fewer than 50 cells in well = fewer than 50 cells per well; well left out of calls; outcome = inactive
Tjap1 (tight junction associated protein 1) — Tnf reporter robust z-score = -0.76; fewer than 50 cells in well = enough cells in well; outcome = inactive
Tssc4 (tumor-suppressing subchromosomal transferable fragment 4) — Tnf reporter robust z-score = -0.2; fewer than 50 cells in well = enough cells in well; outcome = inactive
Tmem121b (transmembrane protein 121B) — Tnf reporter robust z-score = -0.71; fewer than 50 cells in well = enough cells in well; outcome = inactive
Mmp24 (matrix metallopeptidase 24) — Tnf reporter robust z-score = 1.57; fewer than 50 cells in well = enough cells in well; outcome = inactive
Slc25a32 — Tnf reporter robust z-score = 0.44; fewer than 50 cells in well = enough cells in well; outcome = inactive
Trpc4ap — Tnf reporter robust z-score = 0.41; fewer than 50 cells in well = enough cells in well; outcome = inactive
Cdc42bpb (CDC42 binding protein kinase beta) — Tnf reporter robust z-score = 2.17; fewer than 50 cells in well = enough cells in well; outcome = inactive
Me3 (malic enzyme 3, NADP(+)-dependent, mitochondrial) — Tnf reporter robust z-score = 0.58; fewer than 50 cells in well = enough cells in well; outcome = inactive
Htr2a (5-hydroxytryptamine (serotonin) receptor 2A) — Tnf reporter robust z-score = -0.07; fewer than 50 cells in well = enough cells in well; outcome = inactive
Xpnpep1 (X-prolyl aminopeptidase (aminopeptidase P) 1, soluble) — Tnf reporter robust z-score = -0.85; fewer than 50 cells in well = enough cells in well; outcome = inactive
Cimip2b (ciliary microtubule inner protein 2B) — Tnf reporter robust z-score = 3.34; fewer than 50 cells in well = enough cells in well; outcome = active
